This is an account of results in ChEMBL document CHEMBL3393048, “Discovery of potent cytotoxic ortho-aryl chalcones as new scaffold targeting tubulin and mitosis with affinity-based fluorescence” (J Med Chem, 2014).

In assay [1] the test system is SW480. In words: Antiproliferative activity against human SW480 cells after 48 hrs by SRB method. Conditions: SW480, 48 h. Type of assay: functional, cell-based. In a few lines: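 SRB assay. Cells in DMEM high glucose with 10% FBS were seeded at 5000/well and grown 24 h; a day-0 plate was fixed at that point. Compounds were added in triplicate for 48 h. Cells were fixed with TCA at 4 °C for 1 h, stained with 0.4% SRB, and the dye was solubilized in 10 mM Tris pH 10.4. OD was read at 515 nm with day-0 OD subtracted. IC50 came from nonlinear regression of dose–response curves from at least two independent experiments.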
For orientation: The SRB assay estimates cell density from bound dye.

Assay [2] in a line: Antiproliferative activity against human CNE2 cells after 48 hrs by SRB method. It counts as functional, cell-based. To be noted: CNE-2, 48 h. The method in brief:
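SRB assay. Cells in DMEM high glucose with 10% FBS were seeded at 5000/well and grown 24 h; a day-0 plate was fixed at that point. Compounds were added in triplicate for 48 h. IC50 came from nonlinear regression of dose–response curves from at least two independent experiments.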

Regarding `COc1cc2c(c(OC)c1OC)-c1ccc(OC)c(=O)cc1[C@@H](NC(C)=O)CC2` [COLCHICINE], the IC50 in assay [1] was determined as 33 nM; in assay [2], 34 nM.

Usually IC50 stands for the point on the concentration scale where inhibition reaches its midpoint. Read a high IC50 as a need for much substance.
